Laboratory results published in patent US10040806B2, “Microbiocidally active benzoxaboroles” (Syngenta Participations AG, priority 2014, dated 2018).
Some results were stated once for a whole list of compounds, not compound by compound. For some assays here: At least one compound was matched to its structure with a doubt left.

Assays:
[1] = test system: Mycosphaerella graminicola (Septoria tritici); test: Mycosphaerella graminicola (Septoria tritici)/liquid culture (Septoria blotch); format: cell-based; details: 20 ppm; liquid culture, PDB; inhibition of growth determined photometrically 4-5 days after application
[2] = test system: Monographella nivalis (Microdochium nivale); test: Monographella nivalis (Microdochium nivale)/liquid culture (foot rot cereals); format: cell-based; details: 20 ppm; liquid culture, PDB; inhibition of growth determined photometrically 4-5 days after application
[3] = test system: Phaeosphaeria nodorum (Septoria nodorum); test: Phaeosphaeria nodorum (Septoria nodorum)/wheat/leaf disc preventative (glume blotch); format: in vivo; details: 200 ppm, wheat leaf segments cv Kanzler, inoculated 2 days after application, assessed 5-7 days after application
Pyrenophora teres = test: Pyrenophora teres/barley/leaf disc preventative (net blotch); format: in vivo; details: 200 ppm, barley leaf segments cv. Hasso, inoculated 2 days after application, assessed 5-7 days after application
Fusarium culmorum = format: cell-based; details: 20 ppm
[4] = test system: Thanatephorus cucumeris (Rhizoctonia solani); details: 20 ppm; liquid culture, PDB; inhibition of growth determined photometrically 3-4 days after application
[5] = test system: Glomerella lagenarium (Colletotrichum lagenarium); test: Glomerella lagenarium (Colletotrichum lagenarium)/liquid culture (anthracnose); format: cell-based; details: 20 ppm; liquid culture, PDB; inhibition of growth measured photometrically 3-4 days after application
[6] = test system: Puccinia recondita f. sp. tritici; test: Puccinia recondita f. sp. tritici/wheat/leaf disc preventative (brown rust); format: in vivo; details: 200 ppm, wheat leaf segments cv Kanzler, inoculated 1 day after application, assessed 7-9 days after application
[7] = test system: Botryotinia fuckeliana (Botrytis cinerea); test: Botryotinia fuckeliana (Botrytis cinerea)/liquid culture (gray mould); format: cell-based; details: 20 ppm; liquid culture, Vogels broth; inhibition of growth determined photometrically 3-4 days after application
Pythium ultimum = test: Pythium ultimum/liquid culture (seedling damping off); format: cell-based; details: 20 ppm; liquid culture, potato dextrose broth; inhibition of growth determined photometrically 2-3 days after application
[8] = test system: Magnaporthe grisea (Pyricularia oryzae); format: in vivo; details: 200 ppm; rice leaf segments cv. Ballila, preventative, inoculated 2 days after application; assessed 5-7 days after application
[9] = test system: Mycosphaerella arachidis (Cercospora arachidicola); test: Mycosphaerella arachidis (Cercospora arachidicola)/liquid culture (early leaf spot); format: cell-based; details: 20 ppm; liquid culture, PDB; inhibition of growth determined photometrically 4-5 days after application
Sclerotinia sclerotiorum = test: Sclerotinia sclerotiorum/liquid culture (cottony rot); details: 20 ppm; liquid culture, PDB; inhibition of growth determined visually 3-4 days after application
Gaeumannomyces graminis = test: Gaeumannomyces graminis/liquid culture (take-all of cereals); format: cell-based; details: 20 ppm; liquid culture, PDB; inhibition of growth determined photometrically 4-5 days after application
Plasmopara viticola = format: in vivo; details: 200 ppm; grape vine leaf disks, preventative, inoculated 1 day after application; assessed 6-8 days after application
Phytophthora infestans = format: in vivo; details: 200 ppm; tomato leaf disks, preventative, inoculated 1 day after application; assessed 5-7 days after application
[10] = test system: Puccinia recondita f. sp. tritici; test: Puccinia recondita f. sp. tritici/wheat/leaf disc curative (brown rust); format: in vivo; details: 200 ppm, wheat leaf segments, applied one day after inoculation, assessed 8 dpi
Alternaria solani = test: Alternaria solani/tomato/leaf disc (early blight); format: in vivo; details: 200 ppm; tomato leaf disks cv. Baby, inoculated 2 days after application; assessed 5-7 days after application

Measured: disease control

CC#CCOc1cc2c(cc1Cl)COB2O [Compound 8]
not listed: Plasmopara viticola | Phytophthora infestans | [10] | Alternaria solani
at least 80%: all other assays above

N#CCOc1cc2c(cc1Cl)COB2O [Compound 17]
not listed: Pyrenophora teres | [6] | [7] | [8] | Gaeumannomyces graminis | Alternaria solani
at least 80%: all other assays above

C#CCOc1cc2c(cc1F)COB2O [Compound 31]
at least 80%: [1] | [2] | Alternaria solani | Fusarium culmorum | [4] | [5] | Pythium ultimum | [9] | Sclerotinia sclerotiorum | Gaeumannomyces graminis

OB1OCc2cc(Cl)c(OCCF)cc21 [Compound 76]
at least 80%: [2] | Alternaria solani | Pyrenophora teres | [5] | Pythium ultimum | [9] | Sclerotinia sclerotiorum | Gaeumannomyces graminis

CC(C#N)Oc1cc2c(cc1Cl)COB2O (centres unmarked) [Compound 85]
at least 80%: [2] | Plasmopara viticola | Fusarium culmorum | Phytophthora infestans | [5] | Pythium ultimum | [9] | Sclerotinia sclerotiorum | Gaeumannomyces graminis

CCOc1cc(Cl)cc2c1B(O)OC2 [Compound 106]
at least 80%: [2] | [3] | Alternaria solani | Fusarium culmorum | [4] | [5] | Pythium ultimum | [9] | Sclerotinia sclerotiorum
